From PubChem BioAssay AID504467 (National Center for Advancing Translational Sciences (NCATS), 2011)
Out of some 330,000 compounds screened, about 7,700 (2.3%) were called active. The shares of active, inactive and inconclusive entries below differ from those in the screen. Calls follow the shape of the dose curve; as a rule, active = well fitted inhibition curve with a large enough effect; inconclusive = small, poorly fitted or top-dose-only effect, or effect the other way; inactive = flat fitted curve, though single readings scatter. Potencies beside an inconclusive call are fits to weak or partial responses and may not hold up.
Potency is read from the fitted curve at half-maximal effect.

Experiment: qHTS screen for small molecules that inhibit ELG1-dependent DNA repair in human embryonic kidney (HEK293T) cells expressing luciferase-tagged ELG1; also: nearly all actives have a fitted effect of over 55% in size
Settings: HEK293T ELG1-luciferase reporter, luminescence, 16 h, DNA damage induced by 5-fluorouridine; series mostly up to 46.1 µM
How it was run: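 Luminescence from the luciferase reporter, measured 30 min after ONE-Glo reagent at room temperature, was the read-out. Beforehand, 2,000 cells per well were exposed for 16 hr at 37 °C to 5-fluorouridine together with compound or vehicle.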
In the case of COc1ccc(-c2csc3ncnc(NCCCO)c23)cc1, the Potency is reported as active: 4.61 µM.
In the case of O=C(O)c1ccc(-c2sc(Nc3ccccc3)n[n+]2-c2ccccc2)cc1, the Potency is reported as “inactive”.
With Cc1cc(C(=O)N/N=C/c2sc(N3CCOCC3)nc2-c2ccccc2)c(C)o1 the Potency was inconclusive: 13 µM [inhibitor, partial curve, poor fit].
In the case of CCC(C)NC(=O)c1cn(-c2cccc(OC)c2)c(=O)c2ccccc12 (centres undefined), the Potency is reported as “inactive”.
In the case of CC(NC(=O)c1ccco1)C(=O)NC(C)c1cc(F)c(Cl)cc1Cl (centres undefined), the Potency is reported as “inactive”.
For CCCS(=O)(=O)c1cnc(C2COc3ccccc3O2)nc1N (centres undefined), the Potency was inconclusive: 0.082 µM [activator, full curve].
For c1ccc(Nc2nc3ccccc3n3nnnc23)cc1, the Potency was inconclusive: 20.6 µM [activator, partial curve, poor fit].
For COc1cc2c(cc1OC)CN(C(C)C(=O)Nc1cccc(S(=O)(=O)N3CCOCC3)c1)CC2 (centres undefined), the Potency was inconclusive: 23.1 µM [inhibitor, partial curve, poor fit].
In the case of CCN(CC(O)Cn1c2ccccc2c2ccccc21)S(=O)(=O)c1ccc(C)cc1 (centres undefined), the Potency is reported as inconclusive: 32.6 µM [inhibitor, single point].
In the case of O=C(Cc1ccsc1)OCC(=O)c1ccccc1, the Potency is reported as inconclusive: 16.4 µM [activator, partial curve, poor fit].
In the case of O=C(COc1ccccc1[N+](=O)[O-])N/N=C/c1cccs1, the Potency is reported as inconclusive: 29.1 µM [activator, single point].
For Cn1c(=O)c2c(ncn2CC(COCc2ccccc2Cl)OCc2ccccc2Cl)n(C)c1=O (centres undefined), the Potency was inconclusive: 5.8 µM [inhibitor, single point].
With Cc1ccc(S(=O)(=O)NC(=O)c2cc(C)n(-c3ccc(N(C)C)cc3)c2C)cc1 the Potency was inconclusive: 29.1 µM [activator, single point].
With COc1ccc(OC)c(NC(=O)CCc2c[nH]c3ccccc23)c1 the Potency was inconclusive: 18.3 µM [inhibitor, partial curve, poor fit].
For COc1cc(S(=O)(=O)N(Cc2ccc(C)cc2)Cc2ccco2)ccc1-n1cnnn1, the Potency was inconclusive: 32.6 µM [inhibitor, single point].
For O=C(Cc1c[nH]c2ccccc12)NCc1ccc2c(c1)OCO2, the Potency was active: 11.6 µM.
For COc1ccccc1-n1cnc2cc(C(=O)N3CCOCC3)ccc21, the Potency was inconclusive: 29.1 µM [activator, single point].
For CCOc1cccc2sc(N(CCCN(C)C)C(=O)c3ccc(S(=O)(=O)N(CC)Cc4ccccc4)cc3)nc12, the Potency was “inactive”.
For O=C(NC1CCCC1)c1ccccc1-c1nc2ccccc2[nH]1, the Potency was “inactive”.
For Cc1ccc(CNC(=O)c2sc3ccc(S(=O)(=O)N4CCCCC4)cc3c2N)cc1, the Potency was inconclusive: 25.9 µM [inhibitor, partial curve].
In the case of C=CCOn1c(C)c(C(C)=O)c2c3nonc3ccc21, the Potency is reported as active: 10.3 µM.
In the case of Cc1ccc(S(C)(=O)=O)cc1C(=O)N1CC(C(N)=O)Oc2ccccc21 (centres undefined), the Potency is reported as “inactive”.
For CCOC(=O)CC(=O)Nc1ccccc1C(=O)O, the Potency was inconclusive: 32.6 µM [activator, partial curve, poor fit].
In the case of CCn1c(COc2ccccc2C)nnc1SCC(=O)OC, the Potency is reported as “inactive”.
For COc1ccc(OC(=O)N2CCOCC2)cc1, the Potency was inconclusive: 8.2 µM [activator, partial curve, poor fit].
For CCN1C(=O)c2cccc3c(S(=O)(=O)Nc4ncccc4C)ccc1c23, the Potency was inconclusive: 18.4 µM [activator, single point].
In the case of CCN(CC)c1ccc(C(=O)OCC(=O)Nc2ncccn2)cc1, the Potency is reported as “inactive”.
For Clc1ccc(Cn2cc(/C=N/n3cnnc3)c3ccccc32)c(Cl)c1, the Potency was inconclusive: 29.1 µM [inhibitor, single point].
For CC(C)(C)n1ncc2c(=O)n(CC(=O)NCc3ccccc3Cl)cnc21, the Potency was inconclusive: 8.2 µM [activator, partial curve].
For CCCCCCCCn1ccc(=N)cc1, the Potency was active: 0.73 µM.
With CCCCOCCCNC(=O)N[C@H](C(=O)OC)C(C)CC (some centres undefined) the Potency was “inactive”.
In the case of Cc1nnc(SCC(=O)N2CCC(c3noc4ccc(F)cc34)CC2)s1, the Potency is reported as inconclusive: 4.11 µM [inhibitor, full curve].
With O=C(Nc1ccc(N2CCOCC2)cc1)c1ccc(Cl)c(S(=O)(=O)N2CCCCC2)c1 the Potency was inconclusive: 0.411 µM [inhibitor, partial curve, poor fit].
In the case of COc1ccc(NS(=O)(=O)c2ccc(N3CCCC3)c(NC(=S)Nc3cccc(S(=O)(=O)N(C)C)c3)c2)cc1, the Potency is reported as inconclusive: 14.6 µM [inhibitor, single point].
In the case of CCOC(=O)CNC(=S)N(Cc1cccs1)C1CCCCC1, the Potency is reported as “inactive”.
With O=C(NCc1ccccc1)c1noc2c1CCCCC2 the Potency was inconclusive: 5.8 µM [activator, partial curve, poor fit].
For COc1ccc(N2CCN(Cc3nc4c(c(=O)[nH]c(=O)n4C)n3CCCc3ccccc3)CC2)cc1, the Potency was active: 8.91 µM.
For COc1ccc(-c2csc(N3CCC(c4ccccc4)C3)n2)cc1 (centres undefined), the Potency was inconclusive: 18.4 µM [activator, single point].
For CN(C)c1ccc(-n2cccc2/C=N/n2cnnc2)cc1, the Potency was inconclusive: 20.6 µM [activator, partial curve].
With O=C(Nn1c(-c2ccc(Br)cc2)nc2ccccc2c1=O)c1cccnc1 the Potency was “inactive”.
For Cc1ccc(CSc2nnc(SCC(=O)N/N=C/C=C/c3ccco3)s2)cc1, the Potency was inconclusive: 20.6 µM [activator, single point].
In the case of CCCCNc1c(-c2ccc(OC)c(Sc3ccc(OC)cc3)c2)nc2cnccn12, the Potency is reported as inconclusive: 25.9 µM [inhibitor, single point].
For N#CC(C#N)=C(Nc1ccc(F)cc1)SCc1cccc(Br)c1, the Potency was inconclusive: 6.51 µM [inhibitor, single point].
For Cc1ccc2c(COC(=O)c3ccccc3Br)cc(=O)oc2c1, the Potency was inconclusive: 11.6 µM [activator, partial curve].
In the case of CCC1(c2ccc(F)cc2)NC(=O)N(CC(=O)Nc2ccc(-c3nc4ccc(C)cc4s3)cc2)C1=O (centres undefined), the Potency is reported as inconclusive: 2.06 µM [activator, full curve].
With O=C(NCC(=O)N(c1ccc(Cl)cc1)C(C(=O)NC1CCCC1)c1ccncc1)c1ccco1 (centres undefined) the Potency was “inactive”.
For CC(C)NC(=O)NC(=O)COC(=O)CCCSc1nc2ccccc2s1, the Potency was “inactive”.
For O=C(CN1C(=O)c2ccccc2S1(=O)=O)c1cccc(Br)c1, the Potency was “inactive”.
For Cc1cccc(OC(=O)c2sc3ncn(C)c(=O)c3c2C)c1, the Potency was inconclusive: 11.6 µM [activator, partial curve].
For O=C(O)COc1ccccc1/C=N/Nc1ccc(S(=O)(=O)N2CCOCC2)cc1[N+](=O)[O-], the Potency was “inactive”.
In the case of COc1ccc(-n2cc(-c3ccccc3)[nH]c2=S)cc1, the Potency is reported as inconclusive: 18.4 µM [activator, single point].
With Cc1cc(C(=O)COC(=O)c2cccc(S(=O)(=O)N(C)C)c2)c(C)n1CC1CCCO1 (centres undefined) the Potency was inconclusive: 3.26 µM [activator, partial curve].
In the case of CCCCCn1c(SCC(=O)OCC)nc2cc(C(=O)N3CCC(C(N)=O)CC3)ccc2c1=O, the Potency is reported as “inactive”.
In the case of CC(C)c1csc(CN2CCC(CO)(Cc3ccccc3)CC2)n1, the Potency is reported as inconclusive: 23.1 µM [activator, partial curve].
In the case of Cc1cc(NC(=O)c2noc3c2CCc2ccccc2-3)n(-c2ccccc2)n1, the Potency is reported as inconclusive: 18.4 µM [activator, partial curve, poor fit].
With Cc1ccc(-c2csc(N3CCN(c4cc5c(cc4Cl)nc(C(C)N)n5CCCO)CC3)n2)cc1 (centres undefined) the Potency was “inactive”.
In the case of O=C1C2C3C=CC(C3)C2C(=O)N1Nc1ccc([N+](=O)[O-])cc1[N+](=O)[O-] (centres undefined), the Potency is reported as inconclusive: 11.2 µM [activator, single point].
For CCCc1cc(NCCCN2CCOCC2)n2c(nc3ccccc32)c1C#N, the Potency was inconclusive: 16.4 µM [inhibitor, single point].
For Nc1nnnn1/N=C/c1ccc(Cl)cc1, the Potency was inconclusive: 18.3 µM [activator, partial curve, poor fit].
In the case of O=C(Cc1ccccc1F)Nc1ccc2c(c1)CCC2, the Potency is reported as inconclusive: 20.6 µM [activator, partial curve].
For COc1cccc(/C=N/NC(=O)C(C)Cn2cnc3ccccc32)c1 (centres undefined), the Potency was inconclusive: 23.1 µM [inhibitor, single point].
In the case of CN(c1ccccc1)S(=O)(=O)c1cccc(NC(=O)C2=NNC(=O)CC2)c1, the Potency is reported as active: 16.4 µM.
In the case of C=CCN(c1ccccc1)S(=O)(=O)c1ccc(Cl)c(C(=O)OCC(=O)c2[nH]c(C)c(C(C)=O)c2C)c1, the Potency is reported as inconclusive: 16.4 µM [inhibitor, partial curve, poor fit].
In the case of O=[N+]([O-])c1ccc(F)cc1Oc1nc(-c2cccnc2)nc2ccccc12, the Potency is reported as inconclusive: 1.64 µM [inhibitor, partial curve, poor fit].
With CC(C)Cc1ccc(C(=O)Nc2ccc(Cc3ccncc3)cc2)o1 the Potency was active: 20.6 µM.
For CCOC(=O)C1=C(CSc2nc3ccccc3s2)NC(=O)NC1c1ccc(OC)cc1 (centres undefined), the Potency was inconclusive: 29.1 µM [inhibitor, single point].
For CCc1ccc(OCC(=O)N2CCc3ccccc32)cc1, the Potency was inconclusive: 20.6 µM [activator, partial curve].
In the case of O=C(Nc1cccc(C(=O)O)c1)/C(=C\c1ccccc1Cl)NC(=O)c1ccco1, the Potency is reported as “inactive”.
For O=C(CSc1nc(-c2ccccc2)ns1)NCC1CCCO1 (centres undefined), the Potency was inconclusive: 23.1 µM [activator, single point].
